Test results from article PMC9138460.
The exact form of at least one protein or probe is not confirmed. At least one verdict rests on a figure or table, not on a statement of the authors.

Test system: thrombin
Experiment: liquid crystal droplet aggregation (optical microscopy)
Details: 5'-C18H37 phosphate on strand 2 (DNA-C18), adsorbed on 5CB droplets, PBS pH 7.4 (2 mM KH2PO4, 8 mM Na2HPO4, 136 mM NaCl, 2.6 mM KCl), commercial protein, folded or branched DNA

## AGTCCGTGGTAGGGCAGGTTGGGGTGACTTACACATCTACTTCACCA / TGGTGAAGTAGATGTGTA [Thrombin aptamer 1 hybridized to DNA-C18]
With thrombin aptamer 2 on droplets, 1, 5, 10 uM thrombin
  binding result: binds

## GGTTGGTGTGGTTGGTACACATCTACTTCACCA / TGGTGAAGTAGATGTGTA [Thrombin aptamer 2 hybridized to DNA-C18]
With thrombin aptamer 1 on droplets, 1, 5, 10 uM thrombin
  binding result: binds
